Source: PubChem BioAssay AID651595 (National Center for Advancing Translational Sciences (NCATS), 2012)
Hit rate of the full screen: of about 1,100 compounds, fewer than 10 were called active. Not shown: some 6% with an inconclusive outcome. The call rests on the fitted dose curve; in most records, active means well fitted cell-killing curve with a large enough effect; inconclusive means small, poorly fitted or top-dose-only effect; inactive means flat fitted curve, though single readings scatter. The list shows a part of the results.

Assay: qHTS of Nrf2 Activators: Hit Validation in Cytotox Assay;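 further: compound exposure lasted 24 hours before the ATP readout; 0% is about no effect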
Conditions: Cell viability counter-screen for Nrf2 activator hits; series mostly up to 46.1 µM; activity change, negative = cytotoxicity: at the top concentration
From the text: Many diseases have some form of oxidative stress injury and ties to inflammation, causing a host of problems for the patient. The antioxidant response element (ARE) plays an important role in alleviating the harmful effects of oxidative stress. The antioxidant response element (ARE) is a transcriptional regulatory element involved in the activation of genes coding for a number of antioxidant proteins and detoxifying enzymes. These enzymes work in concert to protect tissues from oxidative insults and chemical toxicities in human hepatocytes and immune cells. The protective effects of ARE activation are primarily triggered through Nrf2 (NF-E2-related factor) binding to and activating AREs. It is known that Nrf2 controls the production of over 250 antioxidant and detoxification proteins (Hu et al., 2006), thereby protecting tissues by increasing cellular antioxidant content and suppressing inflammatory signaling pathways. The transcription factor Nrf2 is a central link between oxidative chemicals, such as phenolic antioxidants and electrophilic compounds, and the activation of ARE. Nrf2 levels are constitutively low as a consequence of its interaction with Keap1, which targets its degradation (Zipper and Mulcahy, 2002). Electrophiles react with key cysteine residues in Keap1, releasing Nrf2 and allowing its translocation to the nucleus. Once within the nucleus, Nrf2 complexes with coactivators such as p300, and binds to the AREs to induce gene transcription of cytoprotective enzymes, resulting in the prevention of toxicity. Activation of Nrf2 protects tissues by increasing cellular antioxidant content and suppressing inflammatory signaling pathways. Identifying novel and potent Nrf2 activators by using the AREc32 cell line to detect ARE activation by small molecules will lead to the identification and development of probes to study protective pathways in multiple tissues. These specific probes are essential to study the ARE pathway, and eventually to determine whether this pathway does activate genes that could protect against a host of diseases, including cardiovascular diseases, obesity, diabetes, Alzheimer's, and Parkinson's disease.
This project's aim is to identify novel and potent Nrf2 activators by using the AREc32 cell line to detect ARE activation by small molecules, which will lead to the identification and development of probes to study the ARE pathway. Cytotoxic compounds are flagged as active, and inactivity is desired in this assay.
NIH Chemical Genomics Center [NCGC]
NIH Molecular Libraries Probe Centers Network [MLPCN]
Assay Submitter (PI): Curtis Klaassen, University of Kansas Medical Center
Cell viability after compound treatment was measured using a luciferase-coupled ATP quantitation assay (CellTiter-Glo, Promega) in AREc32_fluc cells. The change of intracellular ATP content indicates the number of metabolically competent cells after compound treatment. AREc32_fluc cells were harvested from T225 flask and resuspended in phenol red free OPTI-MEM medium with 5% FBS. Then 5 microL of 200,000 cells/ml resuspended cells was dispensed into each well of white, solid bottom, 1536-well tissue culture-treated plates using a Multidrop Combi dispenser. After overnight culture at 37 degrees C with 5% CO2, a total of 23 nL of compounds at 7 selected concentrations from the cherry pick or positive control (40 uM stock of CDDO-IM and 2 mM of tBHQ) in DMSO was transferred to each well of the assay plate using a pintool (Kalypsys, San Diego, CA), and the plates were further incubated at 37 degrees C with 5% CO2 for 24 hours. After that, 4 microL of CellTilter-GloTM luminescent substrate mix (Promega) was added to each well. The plate was incubated at room temperature for 30 minutes. The plates were measured on a ViewLux plate reader (PerkinElmer) with clear filter.
With `O=C1C(=Cc2cccc(Cl)c2)Cc2ccccc21` the “activity change, negative = cytotoxicity” value was inactive: -3.65%.
For `COC(=O)c1sccc1NC(=O)c1c(C)noc1C`, the “activity change, negative = cytotoxicity” value was inactive: 2.24%.
For `N#C/C(=C\c1cccs1)Sc1nc2ccccc2s1`, the “activity change, negative = cytotoxicity” value was inactive: -3.38%.
For `O=[N+]([O-])c1cccc(C=NN=Cc2ccccc2O)c1`, the “activity change, negative = cytotoxicity” value was inactive: 0.601%.
For `O=c1c2cc3c(=O)n(-c4ccccc4O)c(=O)c3cc2c(=O)n1-c1ccccc1O`, the “activity change, negative = cytotoxicity” value was inactive: 2.33%.
In the case of `Brc1ccc(C2=CC(c3ccco3)n3nnnc3N2)cc1` (stereo not drawn), the “activity change, negative = cytotoxicity” value is reported as inactive: 6.06%.
In the case of `O=C1N/C(=C\c2ccsc2)C(=O)N1Cc1ccc(F)cc1`, the “activity change, negative = cytotoxicity” value is reported as inactive: 1.65%.
With `c1ccc(N2CC3CCc4ccccc4C3=N2)cc1` (stereo not drawn) the “activity change, negative = cytotoxicity” value was inactive: -0.313%.
For `COc1cc(NC(=S)Nc2ccccn2)c(OC)cc1Cl`, the “activity change, negative = cytotoxicity” value was inactive: 1.25%.
In the case of `Cn1c(CC2C(=O)Nc3ccc(Br)cc32)nc2ccccc2c1=O` (stereo not drawn), the “activity change, negative = cytotoxicity” value is reported as inactive: 0.978%.
For `Brc1cc2c(cc1/C=N/Nc1nc3ccccc3s1)OCO2`, the “activity change, negative = cytotoxicity” value was inactive: 2.68%.
In the case of `S=c1[nH]nc(-c2ccco2)n1/N=C/c1ccc(Br)s1`, the “activity change, negative = cytotoxicity” value is reported as inactive: 13.9%.
In the case of `Cc1cc(C)n(S(=O)(=O)/C=C/c2ccccc2)n1`, the “activity change, negative = cytotoxicity” value is reported as inactive: 23%.
In the case of `Cc1sc2ncnc(SCc3ccco3)c2c1C`, the “activity change, negative = cytotoxicity” value is reported as inactive: 4.5%.
In the case of `O=C(CCN1C(=O)c2cccc3cccc(c23)C1=O)Nc1ccon1`, the “activity change, negative = cytotoxicity” value is reported as inactive: 9.02%.
For `O=c1[nH]c(O)c(/C=C2\C=Nc3ccccc32)[nH]1`, the “activity change, negative = cytotoxicity” value was inactive: 3.31%.
In the case of `O=C(Nc1cc2nn(-c3ccccc3)nc2cc1Cl)c1ccco1`, the “activity change, negative = cytotoxicity” value is reported as inactive: 5.66%.
For `O=[N+]([O-])c1cccc(-c2cnc3ccccc3n2)c1`, the “activity change, negative = cytotoxicity” value was inactive: 2.66%.
In the case of `Cc1ccc([N+](=O)[O-])cc1NC(=O)c1ccccc1`, the “activity change, negative = cytotoxicity” value is reported as inactive: 0.318%.
In the case of `COC(=O)C(=C/C=C/c1ccco1)C(=O)OC`, the “activity change, negative = cytotoxicity” value is reported as inactive: -3.27%.
In the case of `Cc1csc(-c2ccc3cc(Cl)cc(Cl)c3n2)n1`, the “activity change, negative = cytotoxicity” value is reported as inactive: 4.13%.
In the case of `O=C(Nc1ccc(OC(F)F)cc1)c1ncc(Cl)c(Cl)c1Cl`, the “activity change, negative = cytotoxicity” value is reported as inactive: 0.861%.
With `COc1cc(OC)cc(-c2nc3ccccc3s2)c1` the “activity change, negative = cytotoxicity” value was inactive: -0.0317%.
For `Cc1c(Nc2nc3ccccc3n3cnnc23)cccc1[N+](=O)[O-]`, the “activity change, negative = cytotoxicity” value was inactive: 8.26%.
With `COc1ccc(Cl)cc1NC(=O)CSc1c2c(nc3ccccc13)CCC2` the “activity change, negative = cytotoxicity” value was inactive: -1.25%.
In the case of `COC(=O)c1ccccc1NC(=O)/C=C/c1ccco1`, the “activity change, negative = cytotoxicity” value is reported as inactive: -9.3%.
In the case of `Cn1c(=O)n(C)c2cc(NC(=O)c3cccc([N+](=O)[O-])c3)c(Br)cc21`, the “activity change, negative = cytotoxicity” value is reported as inactive: -12.3%.
With `CC1CCCCC1NC(=O)COC(=O)c1c2c(nc3ccccc13)/C(=C/c1ccco1)CC2` (stereo not drawn) the “activity change, negative = cytotoxicity” value was inactive: -2.82%.
For `CCN1C(=O)/C(=C\c2ccco2)C(C(=O)OC)=C1C`, the “activity change, negative = cytotoxicity” value was inactive: -2.74%.
For `c1ccc(-c2ccc3c(c2)NC(C2Nc4cc(-c5ccccc5)ccc4O2)O3)cc1` (stereo not drawn), the “activity change, negative = cytotoxicity” value was inactive: 0.452%.
With `COC(=O)c1sccc1NC(=O)c1csc(C)c1` the “activity change, negative = cytotoxicity” value was inactive: 5.54%.
With `COc1cc(OCc2ccccc2)c(C(=O)/C=C/c2ccc3c(c2)OCO3)c(OC)c1OC` the “activity change, negative = cytotoxicity” value was inactive: 4.11%.
With `COC(=O)C1=C(C)N(c2ccc(Br)cc2)C(=O)/C1=C\c1ccco1` the “activity change, negative = cytotoxicity” value was inactive: 2.27%.
For `CS(=O)(=O)c1ccc2nc(NC(=O)CCS(=O)(=O)c3ccccc3)sc2c1`, the “activity change, negative = cytotoxicity” value was inactive: 11.9%.
In the case of `O=C(/C=C/c1ccccc1[N+](=O)[O-])N1CCc2ccccc2C1`, the “activity change, negative = cytotoxicity” value is reported as inactive: 3.92%.
With `O=C1C(=Cc2ccco2)CCCC1=Cc1ccco1` the “activity change, negative = cytotoxicity” value was inactive: 1.09%.
In the case of `Cc1cc(C)c(C#N)c(SCC(=O)c2ccccc2)n1`, the “activity change, negative = cytotoxicity” value is reported as inactive: 9.1%.
For `O=[N+]([O-])c1cncc([N+](=O)[O-])c1Nc1cccc(O)c1`, the “activity change, negative = cytotoxicity” value was inactive: -19.7%.
